To fix the notation:
B1: Semenogelin-2 (protein, UniProt Q02383 24-582, looked up)
Semenogelin-2: QKGGSKGQLPSGSSQFPHGQKGQHYFGQKDQQHTKSKGSFSIQHTYHVDINDHDWTRKSQQYDLNALHKATKSKQHLGGSQQLLNYKQEGRDHDKSKGHFHMIVIHHKGGQAHHGTQNPSQDQGNSPSGKGLSSQCSNTEKRLWVHGLSKEQASASGAQKGRTQGGSQSSYVLQTEELVVNKQQRETKNSHQNKGHYQNVVDVREEHSSKLQTSLHPAHQDRLQHGPKDIFTTQDELLVYNKNQHQTKNLSQDQEHGRKAHKISYPSSRTEERQLHHGEKSVQKDVSKGSISIQTEEKIHGKSQNQVTIHSQDQEHGHKENKISYQSSSTEERHLNCGEKGIQKGVSKGSISIQTEEQIHGKSQNQVRIPSQAQEYGHKENKISYQSSSTEERRLNSGEKDVQKGVSKGSISIQTEEKIHGKSQNQVTIPSQDQEHGHKENKMSYQSSSTEERRLNYGGKSTQKDVSQSSISFQIEKLVEGKSQIQTPNPNQDQWSGQNAKGKSGQSADSKQDLLSHEQKGRYKQESSESHNIVITEHEVAQDDHLTQQYNEDRNPIST
B2: Beta-microseminoprotein (protein, UniProt P08118 21-114, looked up)
Beta-microseminoprotein: SCYFIPNEGVPGDSTRKCMDLKGNKHPINSEWQTDNCETCTCYETEISCCTLVSTPVGYDKDNCQRIFKKEDCKYIVVEKKDPKKTCSVSEWII
B3: Flavin reductase (protein, UniProt P30043 2-206, looked up)
Flavin reductase (NADPH): AVKKIAIFGATGQTGLTTLAQAVQAGYEVTVLVRDSSRLPSEGPRPAHVVVGDVLQAADVDKTVAGQDAVIVLLGTRNDLSPTTVMSEGARNIVAAMKAHGVDKVVACTSAFLLWDPTKVPPRLQAVTDDHIRMHKVLRESGLKYVAVMPPHIGDQPLTGAYTVTLDGRGPSRVISKHDLGHFMLRCLTTDEYDGHSTYPSHQYQ
B4: Semenogelin-1 (protein, UniProt P04279 24-462, looked up)
Semenogelin-1: QKGGSKGRLPSEFSQFPHGQKGQHYSGQKGKQQTESKGSFSIQYTYHVDANDHDQSRKSQQYDLNALHKTTKSQRHLGGSQQLLHNKQEGRDHDKSKGHFHRVVIHHKGGKAHRGTQNPSQDQGNSPSGKGISSQYSNTEERLWVHGLSKEQTSVSGAQKGRKQGGSQSSYVLQTEELVANKQQRETKNSHQNKGHYQNVVEVREEHSSKVQTSLCPAHQDKLQHGSKDIFSTQDELLVYNKNQHQTKNLNQDQQHGRKANKISYQSSSTEERRLHYGENGVQKDVSQSSIYSQTEEKAQGKSQKQITIPSQEQEHSQKANKISYQSSSTEERRLHYGENGVQKDVSQRSIYSQTEKLVAGKSQIQAPNPKQEPWHGENAKGESGQSTNREQDLLSHEQKGRHQHGSHGGLDIVIIEQEDDSDRHLAQHLNNDRNPLFT
B5: Calreticulin (protein, UniProt P27797 18-417, looked up)
Calreticulin: EPAVYFKEQFLDGDGWTSRWIESKHKSDFGKFVLSSGKFYGDEEKDKGLQTSQDARFYALSASFEPFSNKGQTLVVQFTVKHEQNIDCGGGYVKLFPNSLDQTDMHGDSEYNIMFGPDICGPGTKKVHVIFNYKGKNVLINKDIRCKDDEFTHLYTLIVRPDNTYEVKIDNSQVESGSLEDDWDFLPPKKIKDPDASKPEDWDERAKIDDPTDSKPEDWDKPEHIPDPDAKKPEDWDEEMDGEWEPPVIQNPEYKGEWKPRQIDNPDYKGTWIHPEIDNPEYSPDPSIYAYDNFGVLGLDLWQVKSGTIFDNFLITNDEAYAEEFGNETWGVTKAAEKQMKDKQDEEQRLKEEEEDKKRKEEEEAEDKEDDEDKDEDEEDEEDKEEDEEEDVPGQAKDEL
B6: Mucin-like protein 1 (protein, UniProt Q96DR8 21-90, looked up)
Mucin-like protein 1: NPTTAAPADTYPATGPADDEAPDAETTAAATTATTAAPTTATTAASTTARKDIPVLPKWVGDLPNGRVCP
B7: Cadherin-11 (protein, UniProt P55287 54-796, looked up)
Cadherin-11: GWVWNQFFVIEEYTGPDPVLVGRLHSDIDSGDGNIKYILSGEGAGTIFVIDDKSGNIHATKTLDREERAQYTLMAQAVDRDTNRPLEPPSEFIVKVQDINDNPPEFLHETYHANVPERSNVGTSVIQVTASDADDPTYGNSAKLVYSILEGQPYFSVEAQTGIIRTALPNMDREAKEEYHVVIQAKDMGGHMGGLSGTTKVTITLTDVNDNPPKFPQSVYQMSVSEAAVPGEEVGRVKAKDPDIGENGLVTYNIVDGDGMESFEITTDYETQEGVIKLKKPVDFETKRAYSLKVEAANVHIDPKFISNGPFKDTVTVKISVEDADEPPMFLAPSYIHEVQENAAAGTVVGRVHAKDPDAANSPIRYSIDRHTDLDRFFTINPEDGFIKTTKPLDREETAWLNITVFAAEIHNRHQEAKVPVAIRVLDVNDNAPKFAAPYEGFICESDQTKPLSNQPIVTISADDKDDTANGPRFIFSLPPEIIHNPNFTVRDNRDNTAGVYARRGGFSRQKQDLYLLPIVISDGGIPPMSSTNTLTIKVCGCDVNGALLSCNAEAYILNAGLSTGALIAILACIVILLVIVVLFVTLRRQKKEPLIVFEEEDVRENIITYDDEGGGEEDTEAFDIATLQNPDGINGFIPRKDIKPEYQYMPRPGLRPAPNSVDVDDFINTRIQEADNDPTAPPYDSIQIYGYEGRGSVAGSLSSLESATTDSDLDYDYLQNWGPRFKKLADLYGSKDTFDDDS
B8: Zymogen granule protein 16 homolog B (protein, UniProt Q96DA0 17-172, looked up)
Pancreatic adenocarcinoma …: GKMYGPGGGKYFSTTEDYDHEITGLRVSVGLLLVKSVQVKLGDSWDVKLGALGGNTQEVTLQPGEYITKVFVAFQAFLRGMVMYTSKDRYFYFGKLDGQISSAYPSQEGQVLVGIYGQYQLLGIKSIGFEWNYPLEEPTTEPPVNLTYSANSPVGR
B9: Bisphosphoglycerate mutase (protein, UniProt P07738 2-259, looked up)
Bisphosphoglycerate mutase: SKYKLIMLRHGEGAWNKENRFCSWVDQKLNSEGMEEARNCGKQLKALNFEFDLVFTSVLNRSIHTAWLILEELGQEWVPVESSWRLNERHYGALIGLNREQMALNHGEEQVRLWRRSYNVTPPPIEESHPYYQEIYNDRRYKVCDVPLDQLPRSESLKDVLERLLPYWNERIAPEVLRGKTILISAHGNSSRALLKHLEGISDEDIINITLPTGVPILLELDENLRAVGPHQFLGDQEAIQAAIKKVEDQGKVKQAKK
B10: Cadherin-related family member 2 (protein, UniProt Q9BYE9 21-1310, looked up)
Cadherin-related family …: NVAPKFLANMTSVILPEDLPVGAQAFWLVAEDQDNDPLTYGMSGPNAYFFAVTPKTGEVKLASALDYETLYTFKVTISVSDPYIQVQREMLVIVEDRNDNAPVFQNTAFSTSINETLPVGSVVFSVLAVDKDMGSAGMVVYSIEKVIPSTGDSEHLFRILANGSIVLNGSLSYNNKSAFYQLELKACDLGGMYHNTFTIQCSLPVFLSISVVDQPDLDPQFVREFYSASVAEDAAKGTSVLTVEAVDGDKGINDPVIYSISYSTRPGWFDIGADGVIRVNGSLDREQLLEADEEVQLQVTATETHLNIYGQEAKVSIWVTVRVMDVNDHKPEFYNCSLPACTFTPEEAQVNFTGYVDEHASPRIPIDDLTMVVYDPDKGSNGTFLLSLGGPDAEAFSVSPERAVGSASVQVLVRVSALVDYERQTAMAVQVVATDSVSQNFSVAMVTIHLRDINDHRPTFPQSLYVLTVPEHSATGSVVTDSIHATDPDTGAWGQITYSLLPGNGADLFQVDPVSGTVTVRNGELLDRESQAVYYLTLQATDGGNLSSSTTLQIHLLDINDNAPVVSGSYNIFVQEEEGNVSVTIQAHDNDEPGTNNSRLLFNLLPGPYSHNFSLDPDTGLLRNLGPLDREAIDPALEGRIVLTVLVSDCGEPVLGTKVNVTITVEDINDNLPIFNQSSYNFTVKEEDPGVLVGVVKAWDADQTEANNRISFSLSGSGANYFMIRGLVLGAGWAEGYLRLPPDVSLDYETQPVFNLTVSAENPDPQGGETIVDVCVNVKDVNDNPPTLDVASLRGIRVAENGSQHGQVAVVVASDVDTSAQLEIQLVNILCTKAGVDVGSLCWGWFSVAANGSVYINQSKAIDYEACDLVTLVVRACDLATDPGFQAYSNNGSLLITIEDVNDNAPYFLPENKTFVIIPELVLPNREVASVRARDDDSGNNGVILFSILRVDFISKDGATIPFQGVFSIFTSSEADVFAGSIQPVTSLDSTLQGTYQVTVQARDRPSLGPFLEATTTLNLFTVDQSYRSRLQFSTPKEEVGANRQAINAALTQATRTTVYIVDIQDIDSAARARPHSYLDAYFVFPNGSALTLDELSVMIRNDQDSLTQLLQLGLVVLGSQESQESDLSKQLISVIIGLGVALLLVLVIMTMAFVCVRKSYNRKLQAMKAAKEARKTAAGVMPSAPAIPGTNMYNTERANPMLNLPNKDLGLEYLSPSNDLDSVSVNSLDDNSVDVDKNSQEIKEHRPPHTPPEPDPEPLSVVLLGRQAGASGQLEGPSYTNAGLDTTDL
B11: Ubiquitin carboxyl-terminal hydrolase 8 (protein, UniProt P40818 1-1118, looked up)
Ubiquitin carboxyl-terminal …: MPAVASVPKELYLSSSLKDLNKKTEVKPEKISTKSYVHSALKIFKTAEECRLDRDEERAYVLYMKYVTVYNLIKKRPDFKQQQDYFHSILGPGNIKKAVEEAERLSESLKLRYEEAEVRKKLEEKDRQEEAQRLQQKRQETGREDGGTLAKGSLENVLDSKDKTQKSNGEKNEKCETKEKGAITAKELYTMMTDKNISLIIMDARRMQDYQDSCILHSLSVPEEAISPGVTASWIEAHLPDDSKDTWKKRGNVEYVVLLDWFSSAKDLQIGTTLRSLKDALFKWESKTVLRNEPLVLEGGYENWLLCYPQYTTNAKVTPPPRRQNEEVSISLDFTYPSLEESIPSKPAAQTPPASIEVDENIELISGQNERMGPLNISTPVEPVAASKSDVSPIIQPVPSIKNVPQIDRTKKPAVKLPEEHRIKSESTNHEQQSPQSGKVIPDRSTKPVVFSPTLMLTDEEKARIHAETALLMEKNKQEKELRERQQEEQKEKLRKEEQEQKAKKKQEAEENEITEKQQKAKEEMEKKESEQAKKEDKETSAKRGKEITGVKRQSKSEHETSDAKKSVEDRGKRCPTPEIQKKSTGDVPHTSVTGDSGSGKPFKIKGQPESGILRTGTFREDTDDTERNKAQREPLTRARSEEMGRIVPGLPSGWAKFLDPITGTFRYYHSPTNTVHMYPPEMAPSSAPPSTPPTHKAKPQIPAERDREPSKLKRSYSSPDITQAIQEEEKRKPTVTPTVNRENKPTCYPKAEISRLSASQIRNLNPVFGGSGPALTGLRNLGNTCYMNSILQCLCNAPHLADYFNRNCYQDDINRSNLLGHKGEVAEEFGIIMKALWTGQYRYISPKDFKITIGKINDQFAGYSQQDSQELLLFLMDGLHEDLNKADNRKRYKEENNDHLDDFKAAEHAWQKHKQLNESIIVALFQGQFKSTVQCLTCHKKSRTFEAFMYLSLPLASTSKCTLQDCLRLFSKEEKLTDNNRFYCSHCRARRDSLKKIEIWKLPPVLLVHLKRFSYDGRWKQKLQTSVDFPLENLDLSQYVIGPKNNLKKYNLFSVSNHYGGLDGGHYTAYCKNAARQRWFKFDDHEVSDISVSSVKSSAAYILFYTSLGPRVTDVAT

Results on eleven molecules are retold here after patent US20140038203A1, “METHODS FOR DETECTING OR PREDICTING KIDNEY DISEASE” (MUSC FOUNDATION FOR RESEARCH DEVELOPMENT, priority 2012, published 2014).

One series can be described thus: RRT study: LC-MS/MS urinary proteomics, AKI after cardiac surgery, RRT vs No RRT. Set-up: species or system human. The following applies: direction of urinary abundance, patients who did vs did not require RRT/dialysis.
With B1, the “Up or Down” value is listed as “Up”. The same measure, in the same setting: to B2 belongs “Up”. On the same count and under the same terms, for B3 the value was “Up”; for B4, “Up”.

For B5, the “Up or Down” value was “Up”. Consider B6, for which the “Up or Down” value is listed as “Up”. On the same count and under the same terms, to B7 belongs “Up”; to B8, “Up”; to B9, “Up”. Same read-out and setting: to B10 belongs “Up”; to B11, “Up”.

The same series, now with this note: patients who did vs did not require RRT/dialysis; read with the Up or Down column.
Regarding B2, the “Mean Fold Change” value worked out at 1.789. As to B3, the “Mean Fold Change” value is 1.039. The same measure, in the same setting: to B6 belongs 4.066. Same read-out and setting: to B7 belongs 4.167; to B8, 1.156; to B9, 4.091. The same measure, in the same setting: to B10 belongs 1.057.
